Binding data for three molecules are collected here from paper doi:10.1101/2019.12.24.886648.

By UniProt entry, the sequences of proteins in these tests, tags left out.
UniProt A0FGR9: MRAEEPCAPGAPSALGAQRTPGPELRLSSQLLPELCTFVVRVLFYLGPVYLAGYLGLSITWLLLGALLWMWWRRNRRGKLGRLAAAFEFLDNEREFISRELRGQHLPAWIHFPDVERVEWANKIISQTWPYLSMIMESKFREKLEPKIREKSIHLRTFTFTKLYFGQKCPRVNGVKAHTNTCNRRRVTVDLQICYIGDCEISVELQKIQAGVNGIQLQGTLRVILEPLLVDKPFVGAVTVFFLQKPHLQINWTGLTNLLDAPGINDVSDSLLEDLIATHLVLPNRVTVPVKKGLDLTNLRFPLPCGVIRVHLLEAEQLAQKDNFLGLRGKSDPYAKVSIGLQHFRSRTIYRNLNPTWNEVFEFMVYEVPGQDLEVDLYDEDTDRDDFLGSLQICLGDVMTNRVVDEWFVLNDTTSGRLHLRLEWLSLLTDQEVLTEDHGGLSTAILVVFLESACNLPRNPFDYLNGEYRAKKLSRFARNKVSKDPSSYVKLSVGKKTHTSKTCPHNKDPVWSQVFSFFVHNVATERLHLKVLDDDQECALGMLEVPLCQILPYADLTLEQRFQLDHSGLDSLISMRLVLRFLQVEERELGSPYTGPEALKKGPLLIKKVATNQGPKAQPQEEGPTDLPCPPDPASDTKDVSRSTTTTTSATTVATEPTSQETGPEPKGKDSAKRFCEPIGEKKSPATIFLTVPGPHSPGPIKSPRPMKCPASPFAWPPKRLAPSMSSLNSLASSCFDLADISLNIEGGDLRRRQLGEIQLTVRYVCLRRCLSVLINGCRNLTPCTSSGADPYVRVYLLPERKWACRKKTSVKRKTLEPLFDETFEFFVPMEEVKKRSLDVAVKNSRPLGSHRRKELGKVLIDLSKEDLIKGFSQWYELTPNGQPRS

For one assay, the target named is T1, eGFP-Stx3 (human) (UniProt Q13277).
T1 sequence: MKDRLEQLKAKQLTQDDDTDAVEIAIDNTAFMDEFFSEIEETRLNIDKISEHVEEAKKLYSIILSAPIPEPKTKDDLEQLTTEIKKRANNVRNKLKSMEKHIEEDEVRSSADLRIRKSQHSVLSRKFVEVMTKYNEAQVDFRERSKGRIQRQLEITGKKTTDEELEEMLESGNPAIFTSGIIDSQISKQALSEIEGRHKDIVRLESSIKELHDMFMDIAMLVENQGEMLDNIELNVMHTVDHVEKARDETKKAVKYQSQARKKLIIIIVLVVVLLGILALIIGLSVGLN
In words: co-IP.

For the next assay, the target named is T2, Sec22b-pHL, O75396.
T2 chain: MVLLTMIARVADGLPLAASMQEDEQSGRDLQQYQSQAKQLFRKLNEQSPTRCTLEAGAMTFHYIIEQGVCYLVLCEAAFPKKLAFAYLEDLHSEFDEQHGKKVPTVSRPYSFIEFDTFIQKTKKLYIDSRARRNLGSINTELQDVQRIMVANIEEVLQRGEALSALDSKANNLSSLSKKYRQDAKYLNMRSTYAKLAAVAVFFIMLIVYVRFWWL
In words: co-IP. Conditions: remark: other sources report otherwise.

Results are given in words; binding and its absence hold for the method and conditions named. Binding seen in cells or lysates may run through a third protein. Some binding calls cover weakened binding; strength is not graded here. For part of these data: Where a sequence is shown, tags or fusion partners need not be part of it.

For the molecule “3XFLAG-Sec22b (from UniProt O75396 1-215)”, the binding result with eGFP-Stx3 (human) was “binds”. The same measure, in the same setting: the same measure for Myc-E-Syt3 (from UniProt A0FGR9 1-886): “binds”.

B1: endogenous Sec22b (rat), Q4KM74 1-215 (protein)
chain: MVLLTMIARVADGLPLAASMQEDEQSGRDLQQYQSQAKQLFRKLNEQSPTRCTLEAGAMTFHYIIEQGVCYLVLCEAAFPKKLAFAYLEDLHSEFDEQHGKKVPTVSRPYSFIEFDTFIQKTKKLYIDSRARRNLGSINTELQDVQRIMVANIEEVLQRGEALSALDSKANNLSSLSKKYRQDAKYLNMRSTYAKLAAVAVFFIMLIVYVRFWWL
For B1, the binding entry with Sec22b-pHL, O75396 is on record as “binds”.
